According to PubChem BioAssay AID504467 (National Center for Advancing Translational Sciences (NCATS), 2011):
Among all 330,000 compounds or so, about 7,700 (2.3%) were called active. This list was built around the results that the source calls inconclusive (neither active nor inactive); the mix of calls is not that of the screen. Calls follow the shape of the dose curve; as a rule, active = well fitted inhibition curve with a large enough effect; inconclusive = small, poorly fitted or top-dose-only effect, or effect the other way; inactive = flat fitted curve, though single readings scatter. A potency beside an inconclusive call is a rough fit, not a confirmed value.
Potency is read from the fitted curve at half-maximal effect.

Assay: qHTS screen for small molecules that inhibit ELG1-dependent DNA repair in human embryonic kidney (HEK293T) cells expressing luciferase-tagged ELG1; also: nearly all actives have a fitted effect of over 55% in size
Details: HEK293T ELG1-luciferase reporter, luminescence, 16 h, DNA damage induced by 5-fluorouridine; series mostly up to 46.1 µM
How it was run: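 Overnight (16 hr) co-exposure of 2,000 cells/well to 5-fluorouridine and compound at 37 °C preceded detection. Luciferase was quantified via ONE-Glo luminescence; loss of signal denotes inhibition.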
In the case of Cc1ccc(Cl)c(OCCCCN(C)Cc2ccccc2)c1, the Potency is reported as “inactive”. In the case of CC(C)Oc1ccccc1/C=N/NC(=O)c1ccccc1Cl, the Potency is reported as “inactive”. With NC(=O)c1ccc(NC(=O)CCCNC(=O)c2ccc(Cl)cc2)cc1 the Potency was inconclusive: 0.206 µM [inhibitor, partial curve, poor fit]. For CCOc1ccc(N/C(N)=N/c2nc(C)cc(C)n2)cc1, the Potency was “inactive”. With COc1cccc(-c2ccc(SCc3ccccn3)nn2)c1 the Potency was inconclusive: 5.17 µM [activator, full curve]. For Cc1ccc(S(=O)(=O)N/N=C\C=C\c2ccccc2)cc1, the Potency was “inactive”. With CSCC[C@H](NC(=O)c1cccc([N+](=O)[O-])c1C)c1nc2ccccc2[nH]1 the Potency was “inactive”. In the case of O=C1c2ccccc2C(Nc2ccc(Cl)cn2)N1Cc1ccccc1 (stereo not drawn), the Potency is reported as inconclusive: 23.1 µM [inhibitor, partial curve, poor fit]. In the case of CCCCc1ccc(NC(=S)N2CCCC2)cc1, the Potency is reported as inconclusive: 10.3 µM [activator, partial curve]. With CC1=C(C(=O)Nc2ccccc2C(=O)N2CCC(C)CC2)SCCO1 the Potency was “inactive”. In the case of CC1CCCN(Cc2c(O)ccc3c2O/C(=C\c2ccco2)C3=O)C1 (stereo not drawn), the Potency is reported as “inactive”. In the case of Cc1ccc(NC(=O)CSCC(=O)Nc2nnc(C3CC3)s2)cc1, the Potency is reported as inconclusive: 20.6 µM [activator, partial curve, poor fit]. With Cc1ccc(C(=O)C[n+]2cc(-c3ccc(C)cc3)n3c2CCCCC3)cc1 the Potency was active: 16.4 µM. For Clc1ccc(SCCCN2CCCCC2)cc1, the Potency was “inactive”. For CN(C)c1ccc(-c2c(-c3ccc4c(c3)OCO4)noc2-c2ccsc2)cn1, the Potency was inconclusive: 5.8 µM [activator, partial curve, poor fit]. For O=C(NC(=S)NNC(=O)c1ccccc1O)c1cccnc1, the Potency was “inactive”. With C=CCn1c(Cc2cccs2)nnc1SCC(=O)Nc1cc(OC)cc(OC)c1 the Potency was inconclusive: 16.4 µM [inhibitor, single point]. With COc1ccc(C2CC(=O)C3=C(C2)NC(C)=C(C(=O)Nc2ccccc2C)C3c2coc3ccc(C)cc3c2=O)cc1OC (stereo not drawn) the Potency was active: 5.8 µM. With CCOC(=O)C(=O)Nc1cc(C)nn1-c1nc2ccccc2[nH]1 the Potency was inconclusive: 29.1 µM [activator, single point]. In the case of O=C(Nc1ccc(-c2csc(Nc3cccc(C(F)(F)F)c3)n2)cc1)c1cc([N+](=O)[O-])cc(C(F)(F)F)c1, the Potency is reported as inconclusive: 11.6 µM [inhibitor, single point]. In the case of COC(=O)CCC(=O)c1oc2ccccc2c1N, the Potency is reported as inconclusive: 16.4 µM [activator, single point]. In the case of CCc1cc(=O)oc2cc(OC(C)C(=O)NCc3ccccn3)ccc12 (stereo not drawn), the Potency is reported as inconclusive: 16.4 µM [activator, partial curve, poor fit]. For COc1cccc2c(=O)c3cccc(N)c3[nH]c12, the Potency was “inactive”. With CCOCCCn1c(SC(C)C(=O)NCC2CCCO2)nc2sc(C)c(C)c2c1=O (stereo not drawn) the Potency was “inactive”. In the case of CN(C)CCCN(C(=O)c1cccs1)c1nc2cc3c(cc2s1)OCO3, the Potency is reported as inconclusive: 18.3 µM [activator, single point]. For CSc1nc(-c2ccc(N(C)C)cc2)c(C#N)c(=O)n1C, the Potency was inconclusive: 23.1 µM [activator, partial curve]. With CCN(CC)S(=O)(=O)c1cccc(NC(=O)CCSc2ccc(Cl)cc2)c1 the Potency was inconclusive: 18.4 µM [inhibitor, partial curve]. For COc1ccc(OC)c(CCNC(=O)c2cccc(NC(=O)C3=C(C)OCCS3)c2)c1, the Potency was inconclusive: 18.3 µM [inhibitor, partial curve]. With O=C(COC(=O)C1CCN(c2ccc(C(F)(F)F)cn2)CC1)c1ccccc1 the Potency was inconclusive: 20.6 µM [activator, partial curve, poor fit]. In the case of CCNc1nc(C#N)nc2c1ncn2-c1cc(F)cc(F)c1, the Potency is reported as “inactive”. For CC1CN(C(=O)Nc2ccc3c(c2)OCO3)CC(C)O1 (stereo not drawn), the Potency was inconclusive: 23.1 µM [activator, partial curve]. For Cc1ccc(S(=O)(=O)Nc2ccc(Cl)cn2)cc1C, the Potency was “inactive”. With CC(C)(C)C(=O)Nc1nc2c(s1)COc1ccccc1-2 the Potency was “inactive”. In the case of Cc1ccccc1OCC(=O)N(Cc1cccs1)C1CCS(=O)(=O)C1 (stereo not drawn), the Potency is reported as “inactive”. For COc1ccc(C(CCN2CCN(c3ccccc3)CC2)c2c(OC)cc(OC)c3c(-c4ccccc4)cc(=O)oc23)cc1 (stereo not drawn), the Potency was “inactive”. With CCOc1ccc(-c2nn3c(-c4ccccc4)nnc3s2)cc1 the Potency was inconclusive: 0.0184 µM [activator, partial curve, poor fit]. For COc1cc(/C=C/c2ccc3cccc(O)c3n2)ccc1O, the Potency was inconclusive: 18.3 µM [activator, partial curve]. For O=C(Nc1ccc(F)c(Cl)c1)C1CCN(c2ncnc3c2nc2n3CCCCC2)CC1, the Potency was active: 7.3 µM. In the case of O=C(COc1ccc(F)cc1Br)NCCCN1CCCC1=O, the Potency is reported as “inactive”. In the case of COCCCn1c(C)nnc1SCC(=O)Nc1ccc(C(C)=O)cc1, the Potency is reported as inconclusive: 0.259 µM [inhibitor, single point]. With CC(=O)Oc1ccc(C(=O)Nc2cccc(NC(=O)c3ccco3)c2)cc1 the Potency was “inactive”. With N#CC1=C(S)N(c2ccccc2)C2(CCCCC2)NC1=O the Potency was inconclusive: 25.9 µM [activator, single point]. For O=C(Nc1ccc(-c2nc3cccnc3s2)cc1)c1ccc(Br)o1, the Potency was inconclusive: 5.8 µM [activator, partial curve]. For Cc1ccc(C(=O)c2coc3c2C(=O)C(=O)c2ccccc2-3)cc1, the Potency was inconclusive: 14.6 µM [activator, partial curve]. For O=Cc1cn[nH]c1-c1ccccc1, the Potency was “inactive”. For O=C(N/N=C/c1ccccc1[N+](=O)[O-])c1ccc(CN2CCOCC2)cc1, the Potency was inconclusive: 11.6 µM [activator, partial curve, poor fit]. With CCc1ccc(NC(=O)C/C(C)=N/NC(=O)COc2ccccc2C)cc1 the Potency was “inactive”. For COc1cc(/C=C2\CCC(C3CCCC3)C2=O)cc(OC)c1OC (stereo not drawn), the Potency was inconclusive: 2.91 µM [inhibitor, full curve].
